The record followed here is PubChem BioAssay AID1347423 (Functional Genomics Laboratory (NCATS/FGL), 2020).

Out of some 52,000 sequences screened, about 210 (0.4%) were called active.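 The calls were made as follows: active = gene whose silencing raises cell survival under the drug, median off-target-corrected z-score across its silencing RNAs 2 or more; inactive = the rest.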 The list shows a part of the results.

The test can be described thus: Resistance to Poly (ADP-Ribose) Polymerase inhibitor: Gene Identification via Genome-wide siRNA Screen. To be noted: mouse BRCA2 R2336H ES cells, olaparib, CellTiter-Glo viability; hits give high values. The gist of the method: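 Mouse BRCA2 R2336H ES cells were reverse-transfected with siRNA (20 nM final), treated at 48 h with 500 nM olaparib, and read by CellTiter-Glo after 72 h. Scores: MAD-based z per siRNA, median per gene, seed off-target correction.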
As to GGAUGAUUCUGGGUUACAGTT against Mum1, the z-score is inactive: -1.12.
As for “CGAAGAGUACUUUUUUAGUTT against 4933417K05Rik”, the z-score was inactive: 0.567.
As for GCAUGUCCACGUUAGAAUCTT against Fbxw7, the z-score was inactive: 1.29.
On to GCUAGAGUGACUAUUUUACTT against Acta2, for which the z-score was inactive: 1.44.
GCAAACCUUUGUUCAUUCCTT against Prnp: the z-score was inactive: 0.554.
Regarding GGAAACCUAUUUCAUAUAGTT against Pik3cg, the z-score is inactive: 0.662.
Turning to GCCAUAUCGCUAAAAUUCUTT against Hoxa10, the z-score was inactive: 1.1.
Consider GGGAAACAUUUGAAAGCCUTT against Mpp4, for which the z-score is inactive: 0.512.
Turning to GGAAUACAUCGAGUAUCUCTT against Xab2, the z-score is inactive: -0.79.
Next, “GGCUAUGGAGAGAGUAUGCTT against 4930579E17Rik”: inactive: -1.35.
For ACCUCAAGACAGUGCAAAUTT against Hist1h2bc, the z-score is inactive: 0.0208.
For the sequence GCUGGUGCAUUACUGAGGUTT against Olfr69, the z-score is inactive: -0.221.
Next, “GGCCACUCGUUUUCUAAUUTT against 2010109K11Rik”: inactive: -1.53; GGAAGCUUUGGGAAACAGUTT against Bmp2: inactive: -0.527; GCUCAUUGAGUACAAGACCTT against Ndufs2: inactive: -0.0275.
For UCACAGUGCUUAUCAUUGUTT against Olfr506, the z-score was inactive: 0.521.
Next, GCACUACGAUGACUUCCUGTT against Poll: inactive: -0.251; GGGAAAUGGAAAGCAUUCUTT against Olfr374: inactive: 0.248.
For CCGACUGGGCUCUUUUUACTT against Dbnl, the z-score was inactive: 0.562.
As to “GUCAGAGCUUGAGGAGUUCTT against 0610033H09Rik”, the z-score is inactive: 1.96.
Turning to GCUAUACAUCAUGGUAUCCTT against Dlx1, the z-score was inactive: -2.15.
Turning to GGUAAAGACAAGAUUAAAGTT against Cyp39a1, the z-score is inactive: 0.269.
For the sequence GCAUCAGAUGCGUUUGCUUTT against Blm, the z-score is inactive: 2.49.
As to “GGGAAUCUCUACAGACCCUTT against B130017P16Rik”, the z-score is inactive: 0.243.
On to GGGAUGGAGGAGGAGCUUATT against Bad, for which the z-score is inactive: 0.544.
For GGAAAUGAAGGUUGCAAUGTT against Olfr1317, the z-score was inactive: 0.0452.
Next, GCUUCCUUCUUCUUGUCCATT against V1ra6: inactive: -0.274.
As for GGUUUUGGUCUCACUUUAATT against Pdzx, the z-score is inactive: -0.522.
For the sequence “GGAUCUUGAAGCCAAAUACTT against 0610011N22Rik”, the z-score was inactive: -1.97.
On to GGCCUUUGUCCUUGUCUUCTT against Syvn1, for which the z-score is inactive: -0.572.
Next, GCUUAAAACCAUGUCUGAUTT against Ddef1: inactive: -0.527.
For the sequence GAAACUGCUGCCUCACAUCTT against Arbp, the z-score was inactive: -1.38.
On to GGUCUCCAUCACAUUCAAGTT against BC024139, for which the z-score is inactive: 2.21.
Turning to GGUGAACCCUUUGAGGAAGTT against Gstt3, the z-score is inactive: 0.0605.
Next, GGCACUGAGGUUGUUCAGGTT against Eif3s3: inactive: -0.713; GGGCUGUUAUUUCAAGAAATT against Galnt13: inactive: 1.63; “CCUACAUGUAAUCCAUUUUTT against 1700093E07Rik”: inactive: 0.379.
As for GGGAAUGUGACCAUCAAGCTT against Arl10b, the z-score was inactive: -0.184.
For “GCCACACGACAUGUGAUUCTT against 4932409I22Rik”, the z-score is inactive: 0.291.
With GGAUUUCUAGACUUUAGGATT against Xcr1, the z-score was inactive: 0.711.
Next, GGUAUCCCUAACUGGCAGUTT against Tro: inactive: 0.104; CGACGUGAUCACCAAAGGCTT against Map3k14: inactive: -1.65.
Regarding GGAAACUUUGUUAAAACAGTT against Tank, the z-score is inactive: -0.299.
For the sequence GGUGGUUCCCAUUUCCUUATT against BC004004, the z-score is inactive: 1.1.
As to GGCACGGUGGUGAUAACUUTT against Gpr77, the z-score is inactive: -1.02.
As for “GCCGUACUUUGUCUUUGACTT against 1700020B09Rik”, the z-score is inactive: 0.994.
Regarding GGUCAUCUCUCUUUAGCCUTT against Gsg2, the z-score was inactive: -1.12.
Regarding GGAGCAGGAUUUUGGCAGUTT against Casp2, the z-score was inactive: -0.185.
With GGAAUGUUUGGUGCUAUGATT against BC011209, the z-score was inactive: -1.9.
With GGAAAUAGUUGGUUUUGAATT against Slfn1, the z-score is inactive: 0.273.
As to CCAGAUACAUCUACAACCGTT against H2-Ab1, the z-score was inactive: 1.
Next, GGUCAAUAUGCAGAAAAUGTT against Eif4g2: inactive: -1.77.
On to CCACUAUGUUCUGUGGCAATT against Olfr736, for which the z-score was inactive: -0.18.
With “GGCAUUUUCUUAUUCAUUGTT against 4933414I15Rik”, the z-score was inactive: 0.962.
Next, “GGAAAUGAACAUGUGACUATT against 4930553M18Rik”: inactive: 0.273; GGGCAAAUGUAAAAAGACUTT against Fst: inactive: -1.47; CGUGUUACAUCAUCAGUUCTT against Gja9: inactive: 1.28.
Take GCACUUUCAGCGGUCUCAUTT against Card14: the z-score is inactive: -1.04.
With GGUGUUUGAAGAGCUGACATT against Pde6b, the z-score was inactive: 1.57.
Next, “CCUUGCACUUACCGCUCCUTT against E130012K09”: inactive: 0.754; GGUAUCACGAGCAUUCUCATT against Rrh: inactive: -0.655.
As for GGUAUACGUGGACAACAGCTT against Esr1, the z-score was inactive: -0.67.
In the case of CGCAGAGAUUGUGCGGACUTT against Myg1, the z-score is inactive: -1.71.
Next, CCACGCAAAAGAAUAUAAGTT against Mtss1: inactive: 0.0711; CCCAACAUUUCCCUAUGUCTT against Ingaprp: inactive: 1.1.
As to GGCCAAAACCUAUGAAUUCTT against Cbx8, the z-score was inactive: 1.11.
Turning to “GGAGAUUCUCUCUGAUCAATT against D16Ertd480e”, the z-score is inactive: -1.15.
Next, CCUCGAUAGGUUAGUGACATT against LOC382137: inactive: -2.16; CCUACAGCCACCUAAUAGATT against Olfr1196: inactive: -0.362.
GGAAGUCUCGAUAUCAUUCTT against Cd300lg: the z-score is inactive: -0.699.
With “GCUAGAAUCAUGGCAAAUATT against 9530002B09Rik”, the z-score is inactive: -1.13.
Next, GGACCAGUUUAUCCAGCACTT against Mc3r: inactive: 0.21.
Consider GGAUGGUAGAGUCUCUUAUTT against Olfr414, for which the z-score is inactive: -1.22.
For the sequence “GCCAAGAAUAGCAUUACUGTT against 3830405G04Rik”, the z-score was inactive: -0.0592.
For the sequence “CGAAAUUUAACUUGAACAGTT against 4930547C10Rik”, the z-score is inactive: -0.544.
Consider CCUGAUGCCAGAAUCUAAGTT against Ermap, for which the z-score was inactive: 0.262.
Next, GGUUAAUUCCAACAAAGCATT against Orc4l: inactive: -0.209.
In the case of “GGCAAUCAUGGACCUUAUUTT against 1700030K01Rik”, the z-score was inactive: -1.63.
For GGAUGUGCCUGCCACUAUUTT against Cyp1b1, the z-score is inactive: 0.709.
Consider GGAUGGAUCGUUUCUUAUUTT against Blnk, for which the z-score is inactive: -0.233.
Regarding CGGCUCACAAAUAUACAGUTT against Pira1, the z-score was inactive: -0.438.
Next, “CGUUGUUCAAAGAUUCUCCTT against 2310020F24Rik”: inactive: 0.706; GCGCUAGAAGGCCAGAUAUTT against Orm3: inactive: -0.322.
Turning to CGCACACAGUCGUAUGUACTT against Ryr1, the z-score was inactive: 0.21.
Next, GGAUGUUUUUGAACUACAUTT against Brdt: inactive: -0.0736.
Next, GCAAAAAACUACUUUUACCTT against Chrna1: inactive: 1.19; CCUUUUUGAUGCCAUCGUUTT against BC056929: inactive: 1.78; GGUAUGGAAGAAGAAGCGCTT against Phlda2: inactive: 0.839.
As for GGGUUCAAAUAGUUUACCUTT against Tmem33, the z-score was inactive: 1.
Turning to CCUAGAGAUGUCAGUACUATT against Tas2r123, the z-score is inactive: -0.73.
With GGAACUUGUACAAAUAGGATT against BC005662, the z-score was inactive: 0.313.
For the sequence “GGGAUUGAAAGAAGAAAAGTT against 1700029P11Rik”, the z-score is inactive: -1.21.
Regarding GCACCUCUACACUUUAGAUTT against Gnb2-rs1, the z-score is inactive: -0.0472.
As for GGAGAUGCCUGGUGAUAAATT against BC037393, the z-score was inactive: -1.64.
GGUUAUGGCCUGUAUUAGATT against Hsd17b13: the z-score is inactive: -0.526.
On to “GCAGCCUAUUACCUCAGACTT against B830017A01Rik”, for which the z-score is inactive: -0.64.
In the case of GCUAAAAUUAGAGUGUCUGTT against Gtf2h2, the z-score is inactive: 2.11.
Turning to CCGAUGGUCGCACUUCUUATT against Olfr560, the z-score is inactive: -0.681.
Next, “GGACGGAGGAUUCUGAAACTT against D030028O16Rik”: inactive: 1.45.
As for CCAUUGAGGGAAAUAAACUTT against Fabp2, the z-score was inactive: 0.528.
For the sequence GGACUGUAUGUGGAAUGGCTT against Bmyc, the z-score is inactive: -0.789.
With GGCAAACGAGAAGAAGGAGTT against Serf2, the z-score was inactive: -1.35.
Turning to GGAAGAAGAUAAAGAGAAATT against Gtf2a1, the z-score was inactive: -0.0278.
Next, GGAUUUAUAUCUGAAGUCUTT against Bach1: inactive: 0.425.
